Data as given in publication PMC8612733.

Chains of the proteins cited; added tags and fusions are not shown.
UniProt P67809: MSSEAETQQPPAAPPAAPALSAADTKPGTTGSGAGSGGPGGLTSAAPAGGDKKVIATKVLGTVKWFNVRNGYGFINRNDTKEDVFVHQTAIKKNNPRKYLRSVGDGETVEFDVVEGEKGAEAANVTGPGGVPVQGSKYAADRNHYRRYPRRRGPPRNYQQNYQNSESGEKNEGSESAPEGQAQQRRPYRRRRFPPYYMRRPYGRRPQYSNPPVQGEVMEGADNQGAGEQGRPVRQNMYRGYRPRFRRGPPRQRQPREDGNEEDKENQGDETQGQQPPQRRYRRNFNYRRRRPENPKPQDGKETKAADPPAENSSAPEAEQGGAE
UniProt Q9UKV8: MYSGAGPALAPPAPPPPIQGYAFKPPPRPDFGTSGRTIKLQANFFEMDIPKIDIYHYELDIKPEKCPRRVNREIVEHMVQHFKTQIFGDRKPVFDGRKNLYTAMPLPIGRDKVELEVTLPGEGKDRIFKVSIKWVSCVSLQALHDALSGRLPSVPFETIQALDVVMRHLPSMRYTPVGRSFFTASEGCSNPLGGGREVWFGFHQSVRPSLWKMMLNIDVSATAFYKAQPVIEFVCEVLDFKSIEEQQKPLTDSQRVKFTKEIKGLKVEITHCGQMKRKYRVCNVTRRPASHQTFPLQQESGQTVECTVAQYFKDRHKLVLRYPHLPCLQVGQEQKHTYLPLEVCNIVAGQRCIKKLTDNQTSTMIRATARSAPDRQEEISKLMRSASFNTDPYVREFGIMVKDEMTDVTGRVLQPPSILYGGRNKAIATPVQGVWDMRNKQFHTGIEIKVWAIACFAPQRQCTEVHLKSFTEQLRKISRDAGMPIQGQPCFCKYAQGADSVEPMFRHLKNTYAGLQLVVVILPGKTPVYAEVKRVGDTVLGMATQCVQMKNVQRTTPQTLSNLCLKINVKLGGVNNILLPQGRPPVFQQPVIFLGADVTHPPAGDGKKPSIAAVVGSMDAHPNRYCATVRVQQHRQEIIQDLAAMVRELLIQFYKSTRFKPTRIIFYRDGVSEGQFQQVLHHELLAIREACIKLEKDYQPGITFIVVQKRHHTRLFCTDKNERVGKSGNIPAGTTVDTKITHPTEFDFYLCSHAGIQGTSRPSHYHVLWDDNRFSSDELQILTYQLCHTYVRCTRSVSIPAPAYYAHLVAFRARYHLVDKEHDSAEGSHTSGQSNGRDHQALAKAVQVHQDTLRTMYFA
UniProt O60506: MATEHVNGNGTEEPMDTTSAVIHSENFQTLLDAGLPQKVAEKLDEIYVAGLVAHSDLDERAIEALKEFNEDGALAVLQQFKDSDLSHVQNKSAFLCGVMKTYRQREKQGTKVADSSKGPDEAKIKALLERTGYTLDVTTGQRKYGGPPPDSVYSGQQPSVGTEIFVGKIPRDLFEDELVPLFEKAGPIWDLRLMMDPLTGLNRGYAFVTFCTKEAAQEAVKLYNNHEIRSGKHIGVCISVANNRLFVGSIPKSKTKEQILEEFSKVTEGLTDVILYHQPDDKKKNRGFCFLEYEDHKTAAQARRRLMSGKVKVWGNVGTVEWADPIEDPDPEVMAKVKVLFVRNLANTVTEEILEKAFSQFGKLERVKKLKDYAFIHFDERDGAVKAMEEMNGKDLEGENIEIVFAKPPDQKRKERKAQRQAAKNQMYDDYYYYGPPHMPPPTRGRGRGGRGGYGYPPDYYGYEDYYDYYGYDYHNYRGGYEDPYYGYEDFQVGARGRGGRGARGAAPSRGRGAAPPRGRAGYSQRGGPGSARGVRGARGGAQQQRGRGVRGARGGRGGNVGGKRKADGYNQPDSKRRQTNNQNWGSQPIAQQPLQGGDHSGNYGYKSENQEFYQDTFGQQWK

Tests used:
[1] = biological target: 3xFlag-tagged YBX1 (human) (UniProt P67809); experiment: affinity purification with mass spectrometry; lysate of HEK293T cells transfected with 3xFlag-YBX1 in RIPA buffer; ANTI-FLAG M2 Affinity Gel, 3 hr at 4 °C; washed with RIPA buffer; eluted with 3xFlag peptide; LC-MS
EGFP-tagged YBX1 (human) = EGFP-tagged YBX1 (human) (UniProt P67809); experiment: affinity purification with mass spectrometry; lysate of HEK293T cells transfected with EGFP-YBX1 in RIPA buffer; GFP-Trap agarose beads, 3 hr at 4 °C; washed with RIPA buffer; eluted in Laemmli buffer at 95 °C; LC-MS

Row | Molecule | binding [1] | binding (EGFP-tagged YBX1 (human))
1 | Ago2 (from UniProt Q9UKV8 1-859) | binds | binds
2 | SYNCRIP (from UniProt O60506 1-623) | binds | binds
3 | EDC4 (protein, UniProt Q6P2E9 1-1401) MASCASIDIEDATQHLRDILKLDRPAGGPSAESPRPSSAYNGDLNGLLVPDPLCSGDSTSANKTGLRTMPPINLQEKQVICLSGDDSSTCIGILAKEVEIVASSDSSISSKARGSNKVKIQPVAKYDWEQKYYYGNLIAVSNSFLAYAIRAANNGSAMVRVISVSTSERTLLKGFTGSVADLAFAHLNSPQLACLDEAGNLFVWRLALVNGKIQEEILVHIRQPEGTPLNHFRRIIWCPFIPEESEDCCEESSPTVALLHEDRAEVWDLDMLRSSHSTWPVDVSQIKQGFIVVKGHSTCLSEGALSPDGTVLATASHDGYVKFWQIYIEGQDEPRCLHEWKPHDGRPLSCLLFCDNHKKQDPDVPFWRFLITGADQNRELKMWCTVSWTCLQTIRFSPDIFSSVSVPPSLKVCLDLSAEYLILSDVQRKVLYVMELLQNQEEGHACFSSISEFLLTHPVLSFGIQVVSRCRLRHTEVLPAEEENDSLGADGTHGAGAMESAAGVLIKLFCVHTKALQDVQIRFQPQLNPDVVAPLPTHTAHEDFTFGESRPELGSEGLGSAAHGSQPDLRRIVELPAPADFLSLSSETKPKLMTPDAFMTPSASLQQITASPSSSSSGSSSSSSSSSSSLTAVSAMSSTSAVDPSLTRPPEELTLSPKLQLDGSLTMSSSGSLQASPRGLLPGLLPAPADKLTPKGPGQVPTATSALSLELQEVEPLGLPQASPSRTRSPDVISSASTALSQDIPEIASEALSRGFGSSAPEGLEPDSMASAASALHLLSPRPRPGPELGPQLGLDGGPGDGDRHNTPSLLEAALTQEASTPDSQVWPTAPDITRETCSTLAESPRNGLQEKHKSLAFHRPPYHLLQQRDSQDASAEQSDHDDEVASLASASGGFGTKVPAPRLPAKDWKTKGSPRTSPKLKRKSKKDDGDAAMGSRLTEHQVAEPPEDWPALIWQQQRELAELRHSQEELLQRLCTQLEGLQSTVTGHVERALETRHEQEQRRLERALAEGQQRGGQLQEQLTQQLSQALSSAVAGRLERSIRDEIKKTVPPCVSRSLEPMAGQLSNSVATKLTAVEGSMKENISKLLKSKNLTDAIARAAADTLQGPMQAAYREAFQSVVLPAFEKSCQAMFQQINDSFRLGTQEYLQQLESHMKSRKAREQEAREPVLAQLRGLVSTLQSATEQMAATVAGSVRAEVQHQLHVAVGSLQESILAQVQRIVKGEVSVALKEQQAAVTSSIMQAMRSAAGTPVPSAHLDCQAQQAHILQLLQQGHLNQAFQQALTAADLNLVLYVCETVDPAQVFGQPPCPLSQPVLLSLIQQLASDLGTRTDLKLSYLEEAVMHLDHSDPITRDHMGSVMAQVRQKLFQFLQAEPHNSLGKAARRLSLMLHGLVTPSLP | binds | binds
4 | MOV10 (protein, UniProt Q9HCE1 1-1003) MPSKFSCRQLREAGQCFESFLVVRGLDMETDRERLRTIYNRDFKISFGTPAPGFSSMLYGMKIANLAYVTKTRVRFFRLDRWADVRFPEKRRMKLGSDISKHHKSLLAKIFYDRAEYLHGKHGVDVEVQGPHEARDGQLLIRLDLNRKEVLTLRLRNGGTQSVTLTHLFPLCRTPQFAFYNEDQELPCPLGPGECYELHVHCKTSFVGYFPATVLWELLGPGESGSEGAGTFYIARFLAAVAHSPLAAQLKPMTPFKRTRITGNPVVTNRIEEGERPDRAKGYDLELSMALGTYYPPPRLRQLLPMLLQGTSIFTAPKEIAEIKAQLETALKWRNYEVKLRLLLHLEELQMEHDIRHYDLESVPMTWDPVDQNPRLLTLEVPGVTESRPSVLRGDHLFALLSSETHQEDPITYKGFVHKVELDRVKLSFSMSLLSRFVDGLTFKVNFTFNRQPLRVQHRALELTGRWLLWPMLFPVAPRDVPLLPSDVKLKLYDRSLESNPEQLQAMRHIVTGTTRPAPYIIFGPPGTGKTVTLVEAIKQVVKHLPKAHILACAPSNSGADLLCQRLRVHLPSSIYRLLAPSRDIRMVPEDIKPCCNWDAKKGEYVFPAKKKLQEYRVLITTLITAGRLVSAQFPIDHFTHIFIDEAGHCMEPESLVAIAGLMEVKETGDPGGQLVLAGDPRQLGPVLRSPLTQKHGLGYSLLERLLTYNSLYKKGPDGYDPQFITKLLRNYRSHPTILDIPNQLYYEGELQACADVVDRERFCRWAGLPRQGFPIIFHGVMGKDEREGNSPSFFNPEEAATVTSYLKLLLAPSSKKGKARLSPRSVGVISPYRKQVEKIRYCITKLDRELRGLDDIKDLKVGSVEEFQGQERSVILISTVRSSQSFVQLDLDFNLGFLKNPKRFNVAVTRAKALLIIVGNPLLLGHDPDWKVFLEFCKENGGYTGCPFPAKLDLQQGQNLLQGLSKLSPSTSGPHSHDYLPQEREGEGGLSLQVEPEWRNEL | binds | binds

No constants are given. Whether binding was seen depends on the method and setting. In cells and extracts the contact can be indirect. Here binding means that the protein was enriched with, or labelled near, the bait; the list need not be complete.
